The list shows a part of the results.
compound: Cc1cc(ccc1-c1ccccc1)C(=O)N1CCCN(CC1)C(=O)CCl [compound 10]; test: probe-labelled cysteine peptide fold change vs DMSO (competition) (log2 fold change); higher = less target engagement (more negative = stronger competition); settings: 10 µM; THP-1; incubation time: 4 h
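Further: competitive profiling in live THP-1 cells: cysteine peptides tagged with an iodoacetamide desthiobiotin (IA-DTB) probe, intensity after compound treatment relative to DMSO-treated cells.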

The chains behind the UniProt entries cited, without tags or fusion partners. Where a name states a change or a piece, a line headed by the entry shows the natural chain unless it says otherwise.
UniProt P62633: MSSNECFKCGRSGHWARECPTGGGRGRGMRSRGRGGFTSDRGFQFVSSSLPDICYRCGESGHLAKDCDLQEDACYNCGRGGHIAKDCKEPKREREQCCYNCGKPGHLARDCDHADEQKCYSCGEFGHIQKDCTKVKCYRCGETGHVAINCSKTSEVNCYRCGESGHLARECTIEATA
UniProt P39059: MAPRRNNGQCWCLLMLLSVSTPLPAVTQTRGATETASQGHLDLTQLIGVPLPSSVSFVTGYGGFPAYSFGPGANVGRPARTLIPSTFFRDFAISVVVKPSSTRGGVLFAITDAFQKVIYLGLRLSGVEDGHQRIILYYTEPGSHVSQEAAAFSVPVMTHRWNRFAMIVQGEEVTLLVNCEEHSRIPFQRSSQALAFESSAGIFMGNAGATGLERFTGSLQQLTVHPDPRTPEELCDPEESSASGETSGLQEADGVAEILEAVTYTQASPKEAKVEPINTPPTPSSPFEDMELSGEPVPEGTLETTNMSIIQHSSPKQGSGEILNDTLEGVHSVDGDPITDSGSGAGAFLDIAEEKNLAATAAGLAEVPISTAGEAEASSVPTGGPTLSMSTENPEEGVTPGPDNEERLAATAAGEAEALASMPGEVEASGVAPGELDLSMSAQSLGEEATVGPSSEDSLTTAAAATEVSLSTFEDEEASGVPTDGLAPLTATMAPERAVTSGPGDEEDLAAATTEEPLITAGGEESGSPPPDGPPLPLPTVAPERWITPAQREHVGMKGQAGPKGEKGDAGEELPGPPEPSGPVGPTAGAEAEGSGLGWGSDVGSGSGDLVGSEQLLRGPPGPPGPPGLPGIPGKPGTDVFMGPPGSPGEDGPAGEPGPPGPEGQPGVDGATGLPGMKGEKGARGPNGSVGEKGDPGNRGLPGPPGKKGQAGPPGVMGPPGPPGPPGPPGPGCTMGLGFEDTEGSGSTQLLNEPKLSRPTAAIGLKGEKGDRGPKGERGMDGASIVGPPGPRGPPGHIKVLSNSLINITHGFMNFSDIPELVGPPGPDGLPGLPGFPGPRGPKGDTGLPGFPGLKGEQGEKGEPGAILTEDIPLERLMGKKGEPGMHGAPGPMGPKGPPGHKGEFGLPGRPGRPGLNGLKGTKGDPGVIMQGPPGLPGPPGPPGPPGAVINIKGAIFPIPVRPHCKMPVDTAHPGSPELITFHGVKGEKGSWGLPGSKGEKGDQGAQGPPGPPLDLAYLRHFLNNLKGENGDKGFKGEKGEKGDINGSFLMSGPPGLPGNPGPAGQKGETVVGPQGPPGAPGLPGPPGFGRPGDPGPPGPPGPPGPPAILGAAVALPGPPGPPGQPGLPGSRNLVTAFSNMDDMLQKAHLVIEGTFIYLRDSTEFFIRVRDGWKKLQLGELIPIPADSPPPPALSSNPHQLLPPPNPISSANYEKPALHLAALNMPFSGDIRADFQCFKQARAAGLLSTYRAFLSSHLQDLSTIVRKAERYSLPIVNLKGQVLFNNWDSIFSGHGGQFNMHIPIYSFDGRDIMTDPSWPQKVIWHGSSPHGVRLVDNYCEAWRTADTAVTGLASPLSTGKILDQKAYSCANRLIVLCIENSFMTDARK
UniProt Q14746: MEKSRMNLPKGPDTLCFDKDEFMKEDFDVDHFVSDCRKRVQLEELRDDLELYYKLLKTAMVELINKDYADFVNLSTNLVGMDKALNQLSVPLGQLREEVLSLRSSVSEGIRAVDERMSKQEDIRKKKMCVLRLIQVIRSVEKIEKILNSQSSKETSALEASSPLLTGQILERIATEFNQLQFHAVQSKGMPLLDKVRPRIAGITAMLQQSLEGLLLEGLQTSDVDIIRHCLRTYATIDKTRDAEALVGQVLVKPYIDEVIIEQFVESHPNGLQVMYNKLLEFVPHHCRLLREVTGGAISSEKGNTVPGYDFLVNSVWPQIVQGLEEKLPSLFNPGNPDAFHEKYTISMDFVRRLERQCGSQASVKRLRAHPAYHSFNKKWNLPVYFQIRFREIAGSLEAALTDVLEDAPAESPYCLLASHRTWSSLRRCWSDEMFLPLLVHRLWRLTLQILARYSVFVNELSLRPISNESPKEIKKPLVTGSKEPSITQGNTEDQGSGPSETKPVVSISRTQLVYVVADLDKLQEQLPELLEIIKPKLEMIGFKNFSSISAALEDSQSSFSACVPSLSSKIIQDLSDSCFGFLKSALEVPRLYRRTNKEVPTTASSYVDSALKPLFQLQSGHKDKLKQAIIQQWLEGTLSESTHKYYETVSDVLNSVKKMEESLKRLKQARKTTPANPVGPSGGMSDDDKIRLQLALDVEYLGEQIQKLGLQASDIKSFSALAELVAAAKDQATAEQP
UniProt Q5EBM0: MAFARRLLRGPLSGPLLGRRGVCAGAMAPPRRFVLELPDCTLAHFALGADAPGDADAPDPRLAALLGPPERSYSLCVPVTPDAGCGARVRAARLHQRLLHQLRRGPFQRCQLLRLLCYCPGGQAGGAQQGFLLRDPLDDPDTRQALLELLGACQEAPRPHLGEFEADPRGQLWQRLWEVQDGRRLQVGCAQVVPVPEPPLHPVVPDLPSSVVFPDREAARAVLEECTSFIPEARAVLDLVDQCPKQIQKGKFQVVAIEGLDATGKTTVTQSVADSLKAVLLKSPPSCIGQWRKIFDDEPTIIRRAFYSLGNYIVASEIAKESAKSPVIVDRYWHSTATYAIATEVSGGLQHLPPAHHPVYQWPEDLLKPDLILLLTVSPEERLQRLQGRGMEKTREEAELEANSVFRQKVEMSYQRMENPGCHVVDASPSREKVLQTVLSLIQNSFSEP
UniProt P53621: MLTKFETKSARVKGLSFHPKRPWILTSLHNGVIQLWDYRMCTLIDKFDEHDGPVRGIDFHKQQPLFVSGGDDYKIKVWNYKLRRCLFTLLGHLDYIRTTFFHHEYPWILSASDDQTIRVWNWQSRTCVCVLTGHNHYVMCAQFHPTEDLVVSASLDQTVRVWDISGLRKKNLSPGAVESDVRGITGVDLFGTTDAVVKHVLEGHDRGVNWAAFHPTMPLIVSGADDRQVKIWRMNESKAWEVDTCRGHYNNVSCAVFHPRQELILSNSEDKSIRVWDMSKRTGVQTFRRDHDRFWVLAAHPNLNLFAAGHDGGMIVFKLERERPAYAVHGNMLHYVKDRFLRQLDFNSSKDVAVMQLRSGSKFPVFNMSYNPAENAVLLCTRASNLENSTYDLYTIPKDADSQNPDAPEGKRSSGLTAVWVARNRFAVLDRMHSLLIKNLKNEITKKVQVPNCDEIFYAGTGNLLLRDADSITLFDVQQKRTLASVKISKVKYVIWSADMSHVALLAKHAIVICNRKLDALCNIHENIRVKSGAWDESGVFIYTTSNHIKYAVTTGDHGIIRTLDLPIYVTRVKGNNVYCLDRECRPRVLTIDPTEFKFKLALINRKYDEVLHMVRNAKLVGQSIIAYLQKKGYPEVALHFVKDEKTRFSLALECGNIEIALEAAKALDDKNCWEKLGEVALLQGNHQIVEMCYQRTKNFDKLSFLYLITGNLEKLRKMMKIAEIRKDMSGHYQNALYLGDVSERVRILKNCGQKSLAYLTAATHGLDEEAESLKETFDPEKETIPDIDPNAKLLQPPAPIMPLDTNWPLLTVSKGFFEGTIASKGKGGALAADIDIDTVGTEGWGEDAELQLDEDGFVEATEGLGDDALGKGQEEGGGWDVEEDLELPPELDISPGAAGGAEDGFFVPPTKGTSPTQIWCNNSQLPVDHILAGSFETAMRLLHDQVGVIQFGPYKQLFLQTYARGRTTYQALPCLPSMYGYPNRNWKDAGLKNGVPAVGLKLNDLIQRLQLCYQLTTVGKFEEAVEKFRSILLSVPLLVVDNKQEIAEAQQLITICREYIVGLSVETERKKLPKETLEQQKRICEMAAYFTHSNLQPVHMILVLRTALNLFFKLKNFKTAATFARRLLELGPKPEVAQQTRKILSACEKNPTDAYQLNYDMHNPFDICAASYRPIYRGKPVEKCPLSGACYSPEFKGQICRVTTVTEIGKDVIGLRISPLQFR
UniProt P21964: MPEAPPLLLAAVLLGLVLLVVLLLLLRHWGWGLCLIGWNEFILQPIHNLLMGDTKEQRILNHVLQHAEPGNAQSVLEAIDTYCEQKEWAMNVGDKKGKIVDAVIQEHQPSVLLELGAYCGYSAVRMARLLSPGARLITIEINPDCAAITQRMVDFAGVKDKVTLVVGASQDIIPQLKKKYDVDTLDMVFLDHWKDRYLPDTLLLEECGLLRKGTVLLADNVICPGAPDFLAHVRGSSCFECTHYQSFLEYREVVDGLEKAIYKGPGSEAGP
UniProt Q9NZJ6: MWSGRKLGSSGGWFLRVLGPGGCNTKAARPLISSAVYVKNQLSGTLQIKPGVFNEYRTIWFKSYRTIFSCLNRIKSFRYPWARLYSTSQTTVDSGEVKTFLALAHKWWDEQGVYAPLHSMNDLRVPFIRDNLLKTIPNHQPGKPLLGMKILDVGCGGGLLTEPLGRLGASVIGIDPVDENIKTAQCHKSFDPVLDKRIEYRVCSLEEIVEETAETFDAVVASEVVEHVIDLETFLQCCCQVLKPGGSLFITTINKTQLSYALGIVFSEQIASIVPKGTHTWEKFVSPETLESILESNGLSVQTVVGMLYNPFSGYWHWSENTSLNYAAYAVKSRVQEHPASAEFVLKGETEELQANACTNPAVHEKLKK
UniProt O95628: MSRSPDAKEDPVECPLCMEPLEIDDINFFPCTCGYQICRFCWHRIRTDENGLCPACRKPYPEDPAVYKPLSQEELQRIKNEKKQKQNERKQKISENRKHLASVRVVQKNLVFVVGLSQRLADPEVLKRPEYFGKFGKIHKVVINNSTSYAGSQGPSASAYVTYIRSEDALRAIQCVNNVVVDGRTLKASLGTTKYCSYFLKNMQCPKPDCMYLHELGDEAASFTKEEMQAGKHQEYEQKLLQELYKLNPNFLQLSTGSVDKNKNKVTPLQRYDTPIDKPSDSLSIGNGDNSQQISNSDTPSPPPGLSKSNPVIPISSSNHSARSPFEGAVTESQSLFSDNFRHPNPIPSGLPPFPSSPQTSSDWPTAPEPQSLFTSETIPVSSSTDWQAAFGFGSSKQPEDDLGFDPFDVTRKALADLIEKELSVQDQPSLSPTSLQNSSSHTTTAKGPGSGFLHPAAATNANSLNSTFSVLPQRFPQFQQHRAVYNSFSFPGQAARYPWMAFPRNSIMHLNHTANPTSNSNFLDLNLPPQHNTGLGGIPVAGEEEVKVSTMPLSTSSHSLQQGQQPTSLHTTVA
UniProt Q9H9A5, whole entry, looked up: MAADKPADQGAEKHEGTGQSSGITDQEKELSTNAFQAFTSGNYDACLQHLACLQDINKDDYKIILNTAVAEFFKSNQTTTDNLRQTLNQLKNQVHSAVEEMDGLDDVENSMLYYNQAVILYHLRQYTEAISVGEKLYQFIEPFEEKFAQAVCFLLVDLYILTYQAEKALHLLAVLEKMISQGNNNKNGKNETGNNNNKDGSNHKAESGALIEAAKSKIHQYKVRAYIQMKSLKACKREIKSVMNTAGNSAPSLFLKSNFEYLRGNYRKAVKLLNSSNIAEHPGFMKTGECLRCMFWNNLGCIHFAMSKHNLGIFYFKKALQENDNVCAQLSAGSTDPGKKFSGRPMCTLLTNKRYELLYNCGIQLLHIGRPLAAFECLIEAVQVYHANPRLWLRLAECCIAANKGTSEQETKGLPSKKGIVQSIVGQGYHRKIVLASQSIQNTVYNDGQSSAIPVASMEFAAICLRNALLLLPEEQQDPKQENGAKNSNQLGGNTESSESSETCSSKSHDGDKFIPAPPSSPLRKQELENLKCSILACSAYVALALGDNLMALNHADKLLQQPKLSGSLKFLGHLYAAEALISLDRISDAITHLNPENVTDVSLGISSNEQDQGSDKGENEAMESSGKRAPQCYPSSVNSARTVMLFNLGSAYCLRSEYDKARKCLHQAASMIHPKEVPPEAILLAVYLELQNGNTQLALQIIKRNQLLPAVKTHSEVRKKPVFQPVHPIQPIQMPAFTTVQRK
UniProt Q9UBI1, whole entry, looked up: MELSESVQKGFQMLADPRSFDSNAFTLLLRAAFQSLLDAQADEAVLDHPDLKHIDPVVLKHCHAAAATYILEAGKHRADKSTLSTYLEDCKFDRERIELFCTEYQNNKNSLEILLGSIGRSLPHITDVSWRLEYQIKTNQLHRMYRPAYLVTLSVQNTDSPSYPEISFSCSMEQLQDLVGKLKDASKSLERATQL

Row | Target | probe-labelled cysteine peptide fold change
1 | CNBP_P62633_101_EQCCYNCGKPGHLAR (UniProt P62633) | 0.0237
2 | CNBP_P62633_97_EREQCCYNCGKPGHLAR (UniProt P62633) | -0.212
3 | COPB2_P35606_681_CQFGLAQECLHHAQDYGGLLLLATASGNANMVNK (UniProt P35606) | 0.0892
4 | COL15A1_P39059_965_GAIFPIPVRPHCK (UniProt P39059) | -0.0948
5 | COG2_Q14746_358_QCGSQASVK (UniProt Q14746) | -0.0551
6 | COPS4_Q9BT78_70_QLLTDFCTHLPNLPDSTAK (UniProt Q9BT78) | 0.204
7 | CMPK2_Q5EBM0_243_AVLDLVDQCPK (UniProt Q5EBM0) | -0.281
8 | COPA_P53621_514_HAIVICNR (UniProt P53621) | 0.177
9 | COPS4_Q9BT78_378_QIQSLCFQVNNLLEK (UniProt Q9BT78) | 0.074
10 | COMT_P21964_223_KGTVLLADNVICPGAPDFLAHVR (UniProt P21964) | -0.0533
11 | CNOT1_A5YKK6_1687_YRECHLLVLK (UniProt A5YKK6) | 0.18
12 | COQ3_Q9NZJ6_358_GETEELQANACTNPAVHEK (UniProt Q9NZJ6) | -0.167
13 | CNOT4_O95628_175_AIQCVNNVVVDGR (UniProt O95628) | -0.0308
14 | COG2_Q14746_579_IIQDLSDSCFGFLK (UniProt Q14746) | 0.103
15 | CNOT10_Q9H9A5_504_NSNQLGGNTESSESSETCSSK (UniProt Q9H9A5) | -0.17
16 | COMMD3_Q9UBI1_90_STLSTYLEDCK (UniProt Q9UBI1) | -0.0355

Part of the list above, reformatted.
Row,Target,probe-labelled cysteine peptide fold change
8,COPA_P53621_514_HAIVICNR (UniProt P53621),0.177
9,COPS4_Q9BT78_378_QIQSLCFQVNNLLEK (UniProt Q9BT78),0.074

— the supplement of paper PMC12067093, “Discovery and optimisation of a covalent ligand for TRIM25 and its application to targeted protein ubiquitination” (Chemical Science, 2025)
